No constants are given. Whether binding was seen depends on the method and setting. Some results given as binding are weak or reduced against the parent protein; the word gives no strength. Values belong to the molecule of their own block, whether it stands above or below them.
What was measured:
[1] = biological target: BOD1L1 (human (endogenous in HEK293T)) (UniProt Q8NFC6); assay: SEC; DIF-FRAC RNase A-treated sample (co-fractionation mass spectrometry): clarified HEK293T lysate with RNase A (80 ug, 30 min, room temperature), native SEC on BioSep-SEC-s4000 in PBS pH 7.2, 50 fractions, proteins of each fraction identified by LC-MS/MS; co-elution of elution profiles
[2] = biological target: BOD1L1 (human (endogenous in HEK293T)) (UniProt Q8NFC6); assay: SEC; DIF-FRAC control sample (co-fractionation mass spectrometry): clarified HEK293T lysate without RNase A, native SEC on BioSep-SEC-s4000 in PBS pH 7.2, 50 fractions, proteins of each fraction identified by LC-MS/MS; co-elution of elution profiles
[3] = biological target: RFC2 (mouse) (mouse (endogenous in J1 ES cells)) (UniProt Q9WUK4); assay: SEC; DIF-FRAC RNase A-treated sample: mouse J1 ES cell lysate with RNase A as for HEK293T, native SEC on BioSep-SEC-s4000 in PBS pH 7.2, fractions by LC-MS/MS; co-elution of elution profiles
[4] = biological target: RFC1 (mouse) (mouse (endogenous in J1 ES cells)) (UniProt P35601); assay: SEC; DIF-FRAC control sample: mouse J1 ES cell lysate without RNase A, native SEC on BioSep-SEC-s4000 in PBS pH 7.2, fractions by LC-MS/MS; co-elution of elution profiles
[5] = biological target: RFC2 (human) (human (endogenous in HEK293T)) (UniProt P35250); assay: SEC; DIF-FRAC RNase A-treated sample (co-fractionation mass spectrometry): clarified HEK293T lysate with RNase A (80 ug, 30 min, room temperature), native SEC on BioSep-SEC-s4000 in PBS pH 7.2, 50 fractions, proteins of each fraction identified by LC-MS/MS; co-elution of elution profiles
[6] = biological target: T1, RFC1 (human) (human (endogenous in HEK293T)) (UniProt P35251); assay: SEC; DIF-FRAC control sample (co-fractionation mass spectrometry): clarified HEK293T lysate without RNase A, native SEC on BioSep-SEC-s4000 in PBS pH 7.2, 50 fractions, proteins of each fraction identified by LC-MS/MS; co-elution of elution profiles
T1 sequence: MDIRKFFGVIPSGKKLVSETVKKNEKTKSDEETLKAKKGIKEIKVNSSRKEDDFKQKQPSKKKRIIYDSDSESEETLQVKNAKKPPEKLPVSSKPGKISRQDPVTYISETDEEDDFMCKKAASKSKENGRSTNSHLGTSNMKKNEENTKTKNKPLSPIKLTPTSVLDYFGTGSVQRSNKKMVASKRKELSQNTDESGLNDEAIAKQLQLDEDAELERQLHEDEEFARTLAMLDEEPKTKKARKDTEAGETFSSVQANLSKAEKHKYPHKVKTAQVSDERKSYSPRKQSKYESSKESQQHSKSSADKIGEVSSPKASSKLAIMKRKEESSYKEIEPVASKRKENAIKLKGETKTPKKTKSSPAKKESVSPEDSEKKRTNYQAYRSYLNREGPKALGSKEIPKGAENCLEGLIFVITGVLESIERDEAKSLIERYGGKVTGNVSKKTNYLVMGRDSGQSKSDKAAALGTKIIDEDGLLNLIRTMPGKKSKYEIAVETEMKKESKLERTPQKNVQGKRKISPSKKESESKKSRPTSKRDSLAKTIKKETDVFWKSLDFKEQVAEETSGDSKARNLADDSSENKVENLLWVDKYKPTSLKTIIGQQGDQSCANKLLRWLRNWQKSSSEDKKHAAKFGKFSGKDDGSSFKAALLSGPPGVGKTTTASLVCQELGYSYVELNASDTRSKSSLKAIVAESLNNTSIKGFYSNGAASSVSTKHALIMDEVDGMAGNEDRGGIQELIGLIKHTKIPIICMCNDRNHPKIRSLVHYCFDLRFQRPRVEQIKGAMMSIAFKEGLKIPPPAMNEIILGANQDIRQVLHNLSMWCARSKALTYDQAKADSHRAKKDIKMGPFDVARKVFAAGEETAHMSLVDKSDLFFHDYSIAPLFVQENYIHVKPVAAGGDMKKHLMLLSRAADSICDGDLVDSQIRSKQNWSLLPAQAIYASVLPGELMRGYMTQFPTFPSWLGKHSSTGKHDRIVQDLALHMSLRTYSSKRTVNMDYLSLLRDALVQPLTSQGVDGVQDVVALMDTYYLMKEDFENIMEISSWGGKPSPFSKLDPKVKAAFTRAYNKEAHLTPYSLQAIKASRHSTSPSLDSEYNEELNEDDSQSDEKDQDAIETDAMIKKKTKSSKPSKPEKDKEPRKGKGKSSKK

Chains of the proteins cited; added tags and fusions are not shown.
UniProt Q8NFC6: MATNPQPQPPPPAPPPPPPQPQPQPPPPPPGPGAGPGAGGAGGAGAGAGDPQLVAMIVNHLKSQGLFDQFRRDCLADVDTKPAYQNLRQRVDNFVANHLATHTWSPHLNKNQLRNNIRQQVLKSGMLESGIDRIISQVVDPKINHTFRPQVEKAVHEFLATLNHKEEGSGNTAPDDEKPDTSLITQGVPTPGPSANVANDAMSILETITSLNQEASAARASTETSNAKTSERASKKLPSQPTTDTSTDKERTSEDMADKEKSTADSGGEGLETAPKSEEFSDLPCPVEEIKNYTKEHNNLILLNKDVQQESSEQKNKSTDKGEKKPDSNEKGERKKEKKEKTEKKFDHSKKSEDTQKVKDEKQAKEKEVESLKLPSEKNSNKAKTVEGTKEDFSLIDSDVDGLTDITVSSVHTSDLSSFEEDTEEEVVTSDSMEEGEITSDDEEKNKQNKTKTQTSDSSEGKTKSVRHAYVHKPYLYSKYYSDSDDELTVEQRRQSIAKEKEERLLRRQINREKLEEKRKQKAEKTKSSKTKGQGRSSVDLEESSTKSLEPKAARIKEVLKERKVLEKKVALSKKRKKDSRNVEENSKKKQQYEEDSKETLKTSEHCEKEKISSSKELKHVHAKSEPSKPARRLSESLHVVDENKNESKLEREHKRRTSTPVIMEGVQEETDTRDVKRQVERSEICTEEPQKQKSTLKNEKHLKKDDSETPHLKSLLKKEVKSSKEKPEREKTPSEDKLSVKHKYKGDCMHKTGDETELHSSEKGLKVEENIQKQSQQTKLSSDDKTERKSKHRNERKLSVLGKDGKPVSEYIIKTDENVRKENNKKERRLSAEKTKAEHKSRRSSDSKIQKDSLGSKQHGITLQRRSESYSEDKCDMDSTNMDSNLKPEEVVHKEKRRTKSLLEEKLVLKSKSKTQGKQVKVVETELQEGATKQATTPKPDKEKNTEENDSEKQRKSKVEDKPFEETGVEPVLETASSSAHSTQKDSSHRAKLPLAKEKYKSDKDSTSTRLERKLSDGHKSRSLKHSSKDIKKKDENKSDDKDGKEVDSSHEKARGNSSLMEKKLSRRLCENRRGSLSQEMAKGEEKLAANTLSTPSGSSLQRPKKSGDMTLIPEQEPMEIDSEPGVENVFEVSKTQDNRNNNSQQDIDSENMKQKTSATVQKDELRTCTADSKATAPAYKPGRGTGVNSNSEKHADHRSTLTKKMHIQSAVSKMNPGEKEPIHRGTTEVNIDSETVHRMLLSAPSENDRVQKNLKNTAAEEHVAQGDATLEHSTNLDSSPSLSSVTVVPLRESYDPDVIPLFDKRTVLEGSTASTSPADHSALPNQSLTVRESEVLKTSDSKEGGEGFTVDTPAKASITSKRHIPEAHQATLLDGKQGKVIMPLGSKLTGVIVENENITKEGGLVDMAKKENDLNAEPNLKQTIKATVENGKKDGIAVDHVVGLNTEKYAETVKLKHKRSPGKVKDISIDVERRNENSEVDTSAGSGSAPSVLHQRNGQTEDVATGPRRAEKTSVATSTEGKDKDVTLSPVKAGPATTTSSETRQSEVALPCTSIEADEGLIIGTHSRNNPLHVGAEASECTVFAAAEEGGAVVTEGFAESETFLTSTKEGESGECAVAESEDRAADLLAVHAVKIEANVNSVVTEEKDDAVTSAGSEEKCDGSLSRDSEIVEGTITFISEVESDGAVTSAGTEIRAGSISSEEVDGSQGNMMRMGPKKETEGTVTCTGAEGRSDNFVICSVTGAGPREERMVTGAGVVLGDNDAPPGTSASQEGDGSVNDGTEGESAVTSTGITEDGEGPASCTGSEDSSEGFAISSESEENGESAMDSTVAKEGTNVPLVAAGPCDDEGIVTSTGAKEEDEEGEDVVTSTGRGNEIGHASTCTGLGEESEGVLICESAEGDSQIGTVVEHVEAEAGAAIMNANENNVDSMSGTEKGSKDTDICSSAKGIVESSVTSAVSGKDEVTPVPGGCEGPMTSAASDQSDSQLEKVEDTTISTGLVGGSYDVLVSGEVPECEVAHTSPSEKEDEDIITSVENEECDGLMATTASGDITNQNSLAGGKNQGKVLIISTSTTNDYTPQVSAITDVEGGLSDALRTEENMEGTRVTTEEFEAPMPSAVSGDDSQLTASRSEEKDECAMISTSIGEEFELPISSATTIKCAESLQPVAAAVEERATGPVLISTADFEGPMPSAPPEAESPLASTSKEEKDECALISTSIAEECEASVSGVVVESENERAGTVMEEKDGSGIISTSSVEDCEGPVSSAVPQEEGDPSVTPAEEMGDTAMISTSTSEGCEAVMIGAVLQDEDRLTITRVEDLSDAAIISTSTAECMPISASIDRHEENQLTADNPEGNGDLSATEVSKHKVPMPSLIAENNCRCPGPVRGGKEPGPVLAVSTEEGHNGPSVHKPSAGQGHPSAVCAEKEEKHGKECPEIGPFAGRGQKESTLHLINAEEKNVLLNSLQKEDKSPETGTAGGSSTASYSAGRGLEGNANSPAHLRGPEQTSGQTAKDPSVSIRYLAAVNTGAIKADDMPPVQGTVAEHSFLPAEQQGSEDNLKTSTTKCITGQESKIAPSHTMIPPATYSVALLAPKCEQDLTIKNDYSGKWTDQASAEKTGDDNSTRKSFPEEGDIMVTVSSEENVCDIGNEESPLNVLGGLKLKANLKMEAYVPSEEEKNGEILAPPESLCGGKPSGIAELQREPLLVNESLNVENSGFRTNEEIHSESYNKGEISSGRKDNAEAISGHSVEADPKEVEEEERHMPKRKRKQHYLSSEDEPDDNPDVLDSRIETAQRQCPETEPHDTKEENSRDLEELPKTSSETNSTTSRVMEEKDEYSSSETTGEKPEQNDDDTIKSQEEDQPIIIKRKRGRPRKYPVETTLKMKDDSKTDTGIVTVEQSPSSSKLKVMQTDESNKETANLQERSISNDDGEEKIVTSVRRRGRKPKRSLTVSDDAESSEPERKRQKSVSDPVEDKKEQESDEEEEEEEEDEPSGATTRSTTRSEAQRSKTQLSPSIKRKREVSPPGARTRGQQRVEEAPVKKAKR
UniProt Q9WUK4: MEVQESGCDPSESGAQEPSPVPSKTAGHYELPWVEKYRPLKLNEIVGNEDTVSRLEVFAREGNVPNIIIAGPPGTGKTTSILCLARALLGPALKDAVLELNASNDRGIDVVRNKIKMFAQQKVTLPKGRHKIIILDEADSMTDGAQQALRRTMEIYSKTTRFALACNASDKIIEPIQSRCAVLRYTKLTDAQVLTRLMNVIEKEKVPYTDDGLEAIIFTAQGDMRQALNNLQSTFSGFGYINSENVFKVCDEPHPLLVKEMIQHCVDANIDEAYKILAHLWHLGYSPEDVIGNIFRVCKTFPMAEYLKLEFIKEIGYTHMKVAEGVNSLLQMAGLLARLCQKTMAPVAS
UniProt P35601: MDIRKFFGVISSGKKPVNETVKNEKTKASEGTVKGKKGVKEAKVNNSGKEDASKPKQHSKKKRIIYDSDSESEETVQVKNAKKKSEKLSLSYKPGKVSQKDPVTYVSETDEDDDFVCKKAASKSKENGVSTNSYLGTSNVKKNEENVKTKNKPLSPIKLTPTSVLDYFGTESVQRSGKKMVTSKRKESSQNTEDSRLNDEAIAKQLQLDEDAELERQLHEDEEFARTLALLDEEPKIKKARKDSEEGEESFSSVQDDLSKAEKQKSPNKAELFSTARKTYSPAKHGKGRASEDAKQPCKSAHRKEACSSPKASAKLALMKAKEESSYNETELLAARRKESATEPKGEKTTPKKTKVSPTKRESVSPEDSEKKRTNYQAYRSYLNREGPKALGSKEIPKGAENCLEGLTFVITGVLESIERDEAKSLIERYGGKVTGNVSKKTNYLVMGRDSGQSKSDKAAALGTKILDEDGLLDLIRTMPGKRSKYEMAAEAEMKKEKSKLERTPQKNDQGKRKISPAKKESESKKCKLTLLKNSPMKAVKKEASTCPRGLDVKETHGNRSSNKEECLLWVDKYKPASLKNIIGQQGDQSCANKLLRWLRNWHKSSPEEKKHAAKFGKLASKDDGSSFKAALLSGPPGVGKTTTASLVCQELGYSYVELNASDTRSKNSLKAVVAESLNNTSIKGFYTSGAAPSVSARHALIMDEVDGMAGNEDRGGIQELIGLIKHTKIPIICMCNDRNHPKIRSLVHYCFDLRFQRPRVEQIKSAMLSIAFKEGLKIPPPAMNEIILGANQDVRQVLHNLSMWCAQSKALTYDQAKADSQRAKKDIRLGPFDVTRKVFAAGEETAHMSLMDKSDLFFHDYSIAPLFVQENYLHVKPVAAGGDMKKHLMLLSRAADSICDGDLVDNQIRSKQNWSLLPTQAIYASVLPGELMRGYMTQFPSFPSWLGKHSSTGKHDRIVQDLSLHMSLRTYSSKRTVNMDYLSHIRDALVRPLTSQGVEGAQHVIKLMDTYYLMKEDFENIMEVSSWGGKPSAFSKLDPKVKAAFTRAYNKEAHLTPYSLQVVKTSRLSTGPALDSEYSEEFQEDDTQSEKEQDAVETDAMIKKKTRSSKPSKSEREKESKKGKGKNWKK
UniProt P35250: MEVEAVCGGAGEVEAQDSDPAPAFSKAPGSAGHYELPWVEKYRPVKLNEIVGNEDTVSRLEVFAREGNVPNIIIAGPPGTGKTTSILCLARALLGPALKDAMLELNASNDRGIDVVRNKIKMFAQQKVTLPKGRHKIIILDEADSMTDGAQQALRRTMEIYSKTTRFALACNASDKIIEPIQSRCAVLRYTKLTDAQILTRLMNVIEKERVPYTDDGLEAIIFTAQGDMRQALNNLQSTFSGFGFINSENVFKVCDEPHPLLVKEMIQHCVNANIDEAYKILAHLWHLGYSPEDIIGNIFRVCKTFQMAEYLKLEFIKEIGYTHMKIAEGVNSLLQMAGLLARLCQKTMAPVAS
UniProt Q99J62: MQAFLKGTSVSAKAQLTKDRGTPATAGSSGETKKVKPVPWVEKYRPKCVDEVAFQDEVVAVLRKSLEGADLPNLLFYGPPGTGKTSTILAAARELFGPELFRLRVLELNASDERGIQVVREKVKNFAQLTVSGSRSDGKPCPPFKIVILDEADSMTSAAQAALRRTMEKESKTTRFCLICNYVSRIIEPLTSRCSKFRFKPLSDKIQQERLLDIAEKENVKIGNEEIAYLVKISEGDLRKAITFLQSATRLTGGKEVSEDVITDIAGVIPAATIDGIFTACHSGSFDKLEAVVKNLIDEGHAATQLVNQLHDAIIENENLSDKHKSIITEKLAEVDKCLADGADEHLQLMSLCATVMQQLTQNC
UniProt Q9P0U4: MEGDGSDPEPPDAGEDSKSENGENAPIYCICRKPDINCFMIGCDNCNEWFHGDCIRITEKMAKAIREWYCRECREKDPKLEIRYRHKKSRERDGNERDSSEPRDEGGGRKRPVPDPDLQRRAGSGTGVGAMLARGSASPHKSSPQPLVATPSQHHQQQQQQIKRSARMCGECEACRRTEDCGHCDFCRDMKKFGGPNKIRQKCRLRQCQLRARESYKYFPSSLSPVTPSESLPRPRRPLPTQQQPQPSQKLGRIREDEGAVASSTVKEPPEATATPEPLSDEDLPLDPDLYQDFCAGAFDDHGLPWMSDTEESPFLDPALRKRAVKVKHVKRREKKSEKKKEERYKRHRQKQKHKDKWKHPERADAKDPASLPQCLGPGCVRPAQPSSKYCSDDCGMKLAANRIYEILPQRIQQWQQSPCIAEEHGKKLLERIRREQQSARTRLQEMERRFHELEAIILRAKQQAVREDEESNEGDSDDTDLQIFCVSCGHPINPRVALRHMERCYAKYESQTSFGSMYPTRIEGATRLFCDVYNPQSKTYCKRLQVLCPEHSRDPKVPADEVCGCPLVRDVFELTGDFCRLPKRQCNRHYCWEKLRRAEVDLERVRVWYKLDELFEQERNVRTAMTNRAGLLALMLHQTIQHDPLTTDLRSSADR
UniProt Q9UBL3: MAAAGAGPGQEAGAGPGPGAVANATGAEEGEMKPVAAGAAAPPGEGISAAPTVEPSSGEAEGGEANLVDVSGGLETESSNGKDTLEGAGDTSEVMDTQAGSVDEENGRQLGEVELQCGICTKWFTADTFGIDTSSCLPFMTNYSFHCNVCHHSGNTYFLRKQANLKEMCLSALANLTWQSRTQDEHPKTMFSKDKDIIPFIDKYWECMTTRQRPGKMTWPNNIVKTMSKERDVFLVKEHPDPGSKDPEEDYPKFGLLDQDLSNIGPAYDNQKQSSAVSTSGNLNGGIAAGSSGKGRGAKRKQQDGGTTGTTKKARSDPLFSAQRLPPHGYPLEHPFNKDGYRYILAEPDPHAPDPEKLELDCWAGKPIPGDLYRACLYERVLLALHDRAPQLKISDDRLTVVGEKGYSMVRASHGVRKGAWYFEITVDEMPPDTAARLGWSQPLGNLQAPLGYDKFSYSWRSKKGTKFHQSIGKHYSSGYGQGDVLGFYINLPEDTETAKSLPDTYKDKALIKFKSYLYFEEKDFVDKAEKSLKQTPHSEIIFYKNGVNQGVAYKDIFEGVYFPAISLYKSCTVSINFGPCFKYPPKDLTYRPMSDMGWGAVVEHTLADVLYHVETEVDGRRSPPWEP

[7] = biological target: T2, NIPSNAP1 (human (endogenous in HEK293T)) (UniProt Q9BPW8); assay: as above
T2 sequence: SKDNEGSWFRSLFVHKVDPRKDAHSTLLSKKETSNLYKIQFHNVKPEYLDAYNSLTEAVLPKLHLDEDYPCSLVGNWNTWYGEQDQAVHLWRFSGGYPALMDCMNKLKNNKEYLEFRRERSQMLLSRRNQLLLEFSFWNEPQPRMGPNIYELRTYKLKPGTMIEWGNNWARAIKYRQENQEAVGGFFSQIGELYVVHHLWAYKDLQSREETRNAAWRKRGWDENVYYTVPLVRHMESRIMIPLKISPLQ

[8] = biological target: T2, NIPSNAP1 (human (endogenous in HEK293T)); assay: SEC; DIF-FRAC RNase A-treated sample (co-fractionation mass spectrometry): clarified HEK293T lysate with RNase A (80 ug, 30 min, room temperature), native SEC on BioSep-SEC-s4000 in PBS pH 7.2, 50 fractions, proteins of each fraction identified by LC-MS/MS; co-elution of elution profiles
[9] = biological target: T3, CAPRIN1 (human (endogenous in HEK293T)) (UniProt Q14444); assay: SEC; DIF-FRAC control sample (co-fractionation mass spectrometry): clarified HEK293T lysate without RNase A, native SEC on BioSep-SEC-s4000 in PBS pH 7.2, 50 fractions, proteins of each fraction identified by LC-MS/MS; co-elution of elution profiles
T3 sequence: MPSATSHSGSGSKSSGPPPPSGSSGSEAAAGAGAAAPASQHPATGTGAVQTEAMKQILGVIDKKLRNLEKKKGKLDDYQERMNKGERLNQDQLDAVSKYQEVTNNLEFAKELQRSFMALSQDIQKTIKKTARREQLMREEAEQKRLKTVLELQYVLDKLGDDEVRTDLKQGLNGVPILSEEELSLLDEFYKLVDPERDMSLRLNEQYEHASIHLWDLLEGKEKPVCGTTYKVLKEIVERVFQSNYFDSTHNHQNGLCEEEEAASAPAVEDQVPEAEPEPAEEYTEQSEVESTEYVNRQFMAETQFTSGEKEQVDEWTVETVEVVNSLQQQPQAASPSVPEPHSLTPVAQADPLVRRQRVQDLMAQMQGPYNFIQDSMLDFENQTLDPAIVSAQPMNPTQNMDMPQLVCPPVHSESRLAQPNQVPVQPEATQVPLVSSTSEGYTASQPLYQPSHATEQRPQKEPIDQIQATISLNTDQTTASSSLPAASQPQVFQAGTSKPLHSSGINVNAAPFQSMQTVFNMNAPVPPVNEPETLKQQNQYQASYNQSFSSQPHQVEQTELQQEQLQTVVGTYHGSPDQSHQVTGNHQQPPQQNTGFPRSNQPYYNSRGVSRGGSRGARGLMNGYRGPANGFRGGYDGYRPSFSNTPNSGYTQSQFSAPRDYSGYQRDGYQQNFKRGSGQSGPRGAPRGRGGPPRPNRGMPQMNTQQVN

binding [1]: binds
binding [2]: binds
Molecule: SETD1A (from UniProt O15047 1-1707)

binding [3]: binds
binding [4]: binds
Molecule: RFC4 (mouse) (from UniProt Q99J62 1-364)

binding [1]: binds
binding [2]: binds
Molecule: CXXC1 (from UniProt Q9P0U4 1-656)

binding [3]: binds
binding [4]: binds
Molecule: RFC5 (mouse) (from UniProt Q9D0F6 1-339)

binding [1]: binds
binding [2]: binds
Molecule: RBBP5 (from UniProt Q15291 1-538)

binding [3]: binds
binding [4]: binds
Molecule: RFC3 (mouse) (from UniProt Q8R323 1-356)

binding [5]: binds
binding [6]: binds
Molecule: RFC4 (human) (from UniProt P35249 1-363)

binding [4]: binds
Molecule: RFC2 (mouse) (from UniProt Q9WUK4 1-349)

binding [5]: binds
binding [6]: binds
Molecule: RFC3 (human) (from UniProt P40938 1-356)

binding [6]: binds
Molecule: RFC2 (human) (from UniProt P35250 1-354)

binding [6]: binds
Molecule: RFC5 (human) (from UniProt P40937 1-340)

binding [1]: binds
binding [2]: binds
Molecule: ASH2L (from UniProt Q9UBL3 1-628)

binding [7]: binds
binding [8]: binds
B1: NIPSNAP2 (protein, UniProt O75323 24-286)
chain: CSLLPRLRTWTSSSNRSREDSWLKSLFVRKVDPRKDAHSNLLAKKETSNLYKLQFHNVKPECLEAYNKICQEVLPKIHEDKHYPCTLVGTWNTWYGEQDQAVHLWRYEGGYPALTEVMNKLRENKEFLEFRKARSDMLLSRKNQLLLEFSFWNEPVPRSGPNIYELRSYQLRPGTMIEWGNYWARAIRFRQDGNEAVGGFFSQIGQLYMVHHLWAYRDLQTREDIRNAAWHKHGWEELVYYTVPLIQEMESRIMIPLKTSPLQ

binding [9]: binds
B2: G3BP2 (protein, UniProt Q9UN86 1-482)
chain: MVMEKPSPLLVGREFVRQYYTLLNKAPEYLHRFYGRNSSYVHGGVDASGKPQEAVYGQNDIHHKVLSLNFSECHTKIRHVDAHATLSDGVVVQVMGLLSNSGQPERKFMQTFVLAPEGSVPNKFYVHNDMFRYEDEVFGDSEPELDEESEDEVEEEQEERQPSPEPVQENANSGYYEAHPVTNGIEEPLEESSHEPEPEPESETKTEELKPQVEEKNLEELEEKSTTPPPAEPVSLPQEPPKAFSWASVTSKNLPPSGTVSSSGIPPHVKAPVSQPRVEAKPEVQSQPPRVREQRPRERPGFPPRGPRPGRGDMEQNDSDNRRIIRYPDSHQLFVGNLPHDIDENELKEFFMSFGNVVELRINTKGVGGKLPNFGFVVFDDSEPVQRILIAKPIMFRGEVRLNVEEKKTRAARERETRGGGDDRRDIRRNDRGPGGPRGIVGGGMMRDRDGRGPPPRGGMAQKLGSGRGTGQMEGRFTGQRR

binding [9]: binds
B3: NUFIP2 (protein, UniProt Q7Z417 1-695)
chain: MEEKPGQPQPQHHHSHHHPHHHPQQQQQQPHHHHHYYFYNHSHNHHHHHHHQQPHQYLQHGAEGSPKAQPKPLKHEQKHTLQQHQETPKKKTGYGELNGNAGEREISLKNLSSDEATNPISRVLNGNQQVVDTSLKQTVKANTFGKAGIKTKNFIQKNSMDKKNGKSYENKSGENQSVDKSDTIPIPNGVVTNNSGYITNGYMGKGADNDGSGSESGYTTPKKRKARRNSAKGCENLNIVQDKIMQQETSVPTLKQGLETFKPDYSEQKGNRVDGSKPIWKYETGPGGTSRGKPAVGDMLRKSSDSKPGVSSKKFDDRPKGKHASAVASKEDSWTLFKPPPVFPVDNSSAKIVPKISYASKVKENLNKTIQNSSVSPTSSSSSSSSTGETQTQSSSRLSQVPMSALKSVTSANFSNGPVLAGTDGNVYPPGGQPLLTTAANTLTPISSGTDSVLQDMSLTSAAVEQIKTSLFIYPSNMQTMLLSTAQVDLPSQTDQQNLGDIFQNQWGLSFINEPSAGPETVTGKSSEHKVMEVTFQGEYPATLVSQGAEIIPSGTEHPVFPKAYELEKRTSPQVLGSILKSGTTSESGALSLEPSHIGDLQKADTSSQGALVFLSKDYEIESQNPLASPTNTLLGSAKEQRYQRGLERNDSWGSFDLRAAIVYHTKEMESIWNLQKQDPKRIITYNEAMDSPDQ

— PMC6873818
